The source of these data is paper PMC9880260, “Identification of compounds with activity against Trypanosoma cruzi within a collection of synthetic nucleoside analogs” (Frontiers in Cellular and Infection Microbiology, 2023).

Some results are limits rather than exact numbers.

The data set concerns T. cruzi amastigotes. The data set is described as follows: Amastigotes growth inhibition assay (infected Vero cells, 72 h, CPRG). To be noted: Vero cells TC50 / anti-amastigote IC50.
In the case of `O=C(Cn1ccnc1[N+](=O)[O-])NCc1ccccc1` [BNZ, benznidazole, reference compound], the “SI Anti-amastigote assay” value worked out at 133.67.

With `c1ccc(CNc2ncnc3c2nc(-c2ccccc2)n3Cc2ccccc2)cc1` [Compound L4-0c], the “SI Anti-amastigote assay” value came out at 127.26. As for `c1ccc(CCNc2ncnc3c2nc(-c2ccccc2)n3CCc2ccccc2)cc1` [Compound L4-1c], the “SI Anti-amastigote assay” value was 255.76. Regarding `COc1ccc(CNc2ncnc3c2nc(-c2ccccc2)n3Cc2ccc(OC)cc2)cc1` [Compound L4-2c], the “SI Anti-amastigote assay” value is > 1,000. Regarding `Clc1ccc(CNc2ncnc3c2ncn3Cc2ccc(Cl)cc2)cc1` [Compound L4-4a], the “SI Anti-amastigote assay” value is reported as 116.45. With `Clc1ccc(CNc2ncnc3c2nc(-c2ccccc2)n3Cc2ccc(Cl)cc2)cc1` [Compound L4-4c], the “SI Anti-amastigote assay” value amounted to 44.70. Regarding `Brc1ccc(CCNc2ncnc3c2nc(-c2ccccc2)n3CCc2ccc(Br)cc2)cc1` [Compound L4-7c], the “SI Anti-amastigote assay” value turned out to be 121.08.

Consider `Clc1cccc(CNc2ncnc3c2nc(-c2ccccc2)n3Cc2cccc(Cl)c2)c1` [Compound L4-8c, N,9-bis(3-chlorobenzyl)-8-phenyl-9H-purin-6-amine], for which the “SI Anti-amastigote assay” value is 427.33. For `Cc1nc2c(NCc3ccccc3Cl)ncnc2n1Cc1ccccc1Cl` [Compound L4-9b], the “SI Anti-amastigote assay” value was 126.59.
